The target of experiment [1] is TIRAP, endogenous in primary human monocytes (human (endogenous in primary monocytes)) (UniProt P58753). Nature of the experiment: co-IP; endogenous IPs from lysates of primary human monocytes (untreated or LPS 100 ng/ml; pretreated with 15 μM C3-Pen or P7-Pen): anti-IRAK1, anti-IRAK4 or anti-TIRAP antibodies covalently coupled to Dynabeads, +4°C, 4 h; Western blot. For orientation: In western blotting, separated proteins are transferred to a membrane and probed.

By UniProt entry, the sequences of proteins in these tests, tags left out. Residues count along the entry.
UniProt P58753: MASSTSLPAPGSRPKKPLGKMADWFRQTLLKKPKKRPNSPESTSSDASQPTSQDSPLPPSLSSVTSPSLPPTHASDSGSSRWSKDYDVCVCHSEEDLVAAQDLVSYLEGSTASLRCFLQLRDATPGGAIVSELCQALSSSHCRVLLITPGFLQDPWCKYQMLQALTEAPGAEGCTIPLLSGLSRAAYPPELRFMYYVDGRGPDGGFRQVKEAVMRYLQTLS
UniProt Q86XR7: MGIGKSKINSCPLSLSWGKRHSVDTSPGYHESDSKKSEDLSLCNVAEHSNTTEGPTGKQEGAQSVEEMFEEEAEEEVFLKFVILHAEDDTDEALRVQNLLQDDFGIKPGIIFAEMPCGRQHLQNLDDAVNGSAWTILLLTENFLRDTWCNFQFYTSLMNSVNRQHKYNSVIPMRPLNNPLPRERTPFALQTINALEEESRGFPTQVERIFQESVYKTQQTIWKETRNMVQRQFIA
UniProt P51617: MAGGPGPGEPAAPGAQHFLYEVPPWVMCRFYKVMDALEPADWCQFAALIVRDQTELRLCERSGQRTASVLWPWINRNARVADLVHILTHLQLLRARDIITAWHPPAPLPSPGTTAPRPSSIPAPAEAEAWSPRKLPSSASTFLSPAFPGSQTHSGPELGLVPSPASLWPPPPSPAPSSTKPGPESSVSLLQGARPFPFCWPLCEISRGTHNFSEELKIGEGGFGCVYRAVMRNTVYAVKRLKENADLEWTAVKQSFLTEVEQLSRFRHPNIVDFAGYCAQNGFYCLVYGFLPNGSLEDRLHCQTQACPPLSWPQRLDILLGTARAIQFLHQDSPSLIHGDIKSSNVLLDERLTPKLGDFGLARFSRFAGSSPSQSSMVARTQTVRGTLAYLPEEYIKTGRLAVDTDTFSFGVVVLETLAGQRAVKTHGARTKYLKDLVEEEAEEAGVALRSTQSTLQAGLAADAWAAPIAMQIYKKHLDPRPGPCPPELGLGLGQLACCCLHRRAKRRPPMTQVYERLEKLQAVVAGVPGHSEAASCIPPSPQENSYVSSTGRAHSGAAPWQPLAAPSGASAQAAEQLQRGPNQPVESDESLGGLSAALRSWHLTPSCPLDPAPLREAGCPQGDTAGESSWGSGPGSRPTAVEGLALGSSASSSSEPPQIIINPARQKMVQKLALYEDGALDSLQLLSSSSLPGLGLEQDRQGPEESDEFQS
UniProt O00206, residues 24-839: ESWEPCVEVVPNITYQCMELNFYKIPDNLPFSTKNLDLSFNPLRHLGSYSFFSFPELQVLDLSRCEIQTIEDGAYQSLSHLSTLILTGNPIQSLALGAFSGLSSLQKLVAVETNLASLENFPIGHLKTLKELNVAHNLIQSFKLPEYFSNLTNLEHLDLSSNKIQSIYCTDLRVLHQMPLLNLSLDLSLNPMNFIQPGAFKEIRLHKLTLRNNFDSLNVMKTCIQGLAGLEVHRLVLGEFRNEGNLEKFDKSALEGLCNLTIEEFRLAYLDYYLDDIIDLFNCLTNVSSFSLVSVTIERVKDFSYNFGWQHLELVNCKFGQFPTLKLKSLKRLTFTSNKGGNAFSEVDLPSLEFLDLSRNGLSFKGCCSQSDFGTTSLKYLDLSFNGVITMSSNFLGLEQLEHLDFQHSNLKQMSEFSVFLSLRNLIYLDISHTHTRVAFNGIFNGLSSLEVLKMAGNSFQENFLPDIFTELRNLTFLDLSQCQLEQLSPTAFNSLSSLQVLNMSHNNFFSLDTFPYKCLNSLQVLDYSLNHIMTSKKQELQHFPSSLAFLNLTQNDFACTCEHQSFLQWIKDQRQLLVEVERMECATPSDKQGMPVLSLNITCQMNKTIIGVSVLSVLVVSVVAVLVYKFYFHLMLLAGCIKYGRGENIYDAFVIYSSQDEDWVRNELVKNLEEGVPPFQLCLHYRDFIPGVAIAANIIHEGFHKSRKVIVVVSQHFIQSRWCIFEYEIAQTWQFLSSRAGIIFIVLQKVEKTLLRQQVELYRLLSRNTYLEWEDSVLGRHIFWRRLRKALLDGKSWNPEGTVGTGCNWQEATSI
UniProt Q8IUC6: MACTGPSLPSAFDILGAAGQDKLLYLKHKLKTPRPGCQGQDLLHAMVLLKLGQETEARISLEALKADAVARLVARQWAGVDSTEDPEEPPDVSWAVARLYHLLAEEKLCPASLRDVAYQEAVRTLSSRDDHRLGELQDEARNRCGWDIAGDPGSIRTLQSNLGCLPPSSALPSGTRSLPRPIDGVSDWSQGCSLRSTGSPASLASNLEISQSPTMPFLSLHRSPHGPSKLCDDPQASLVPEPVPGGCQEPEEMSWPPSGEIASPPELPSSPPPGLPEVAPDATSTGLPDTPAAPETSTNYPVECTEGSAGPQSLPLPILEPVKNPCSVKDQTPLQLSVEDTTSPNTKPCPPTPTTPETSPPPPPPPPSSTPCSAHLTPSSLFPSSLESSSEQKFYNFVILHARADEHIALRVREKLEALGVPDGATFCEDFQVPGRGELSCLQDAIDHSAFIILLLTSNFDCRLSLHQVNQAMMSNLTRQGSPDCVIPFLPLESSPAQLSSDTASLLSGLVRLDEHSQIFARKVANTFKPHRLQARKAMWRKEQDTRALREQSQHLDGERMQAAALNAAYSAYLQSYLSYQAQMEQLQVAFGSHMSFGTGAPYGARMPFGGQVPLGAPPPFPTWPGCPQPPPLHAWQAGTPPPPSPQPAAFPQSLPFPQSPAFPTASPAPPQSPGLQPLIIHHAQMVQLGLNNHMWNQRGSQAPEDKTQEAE
UniProt Q99836: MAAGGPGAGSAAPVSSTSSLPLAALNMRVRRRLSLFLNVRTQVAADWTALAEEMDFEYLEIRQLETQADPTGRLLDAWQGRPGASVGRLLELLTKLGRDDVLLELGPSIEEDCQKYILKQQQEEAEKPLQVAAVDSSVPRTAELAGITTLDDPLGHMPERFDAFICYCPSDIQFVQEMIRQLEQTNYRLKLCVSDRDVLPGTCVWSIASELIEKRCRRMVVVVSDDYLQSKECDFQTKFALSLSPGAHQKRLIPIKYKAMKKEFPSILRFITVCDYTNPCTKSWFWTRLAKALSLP
UniProt Q7L804: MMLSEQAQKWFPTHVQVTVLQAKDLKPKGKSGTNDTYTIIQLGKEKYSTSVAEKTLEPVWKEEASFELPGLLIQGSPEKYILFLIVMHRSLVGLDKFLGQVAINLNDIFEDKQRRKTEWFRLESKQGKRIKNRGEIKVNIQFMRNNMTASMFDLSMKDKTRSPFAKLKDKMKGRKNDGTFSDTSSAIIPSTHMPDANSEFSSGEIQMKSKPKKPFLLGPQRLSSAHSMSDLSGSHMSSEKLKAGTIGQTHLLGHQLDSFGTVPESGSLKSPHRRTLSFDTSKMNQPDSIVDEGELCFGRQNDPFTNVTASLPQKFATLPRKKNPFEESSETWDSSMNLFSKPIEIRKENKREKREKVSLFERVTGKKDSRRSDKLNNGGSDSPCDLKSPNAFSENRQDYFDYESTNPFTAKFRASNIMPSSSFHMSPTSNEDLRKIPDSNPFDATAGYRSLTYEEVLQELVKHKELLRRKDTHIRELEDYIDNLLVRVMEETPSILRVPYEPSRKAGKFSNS

Experiment [2] deals with TRAM^FLAG (TRIF-related adapter molecule with C-terminal FLAG), human (human) (UniProt Q86XR7). Nature of the experiment: co-IP; HEK 293T co-transfected for 48 h; lysis in 150 mM NaCl, 50 mM Tris–HCl pH 8.0, 1 mM EDTA, 1% NP40; anti-FLAG M2 agarose at +4°C for 4 h (legend of Figure 4: 3 h); Western blot; in Figures 4 and 7D,E cells treated with 30 μM C3-Pen or P7-Pen for 1 h before lysis.

Experiment [3] addresses IRAK1, endogenous in primary human monocytes (human (endogenous in primary monocytes)) (UniProt P51617). Nature of the experiment: co-IP; endogenous IPs from lysates of primary human monocytes (untreated or LPS 100 ng/ml; pretreated with 15 μM C3-Pen or P7-Pen): anti-IRAK1, anti-IRAK4 or anti-TIRAP antibodies covalently coupled to Dynabeads, +4°C, 4 h; Western blot.
For experiment [4], the target named is TLR4^FLAG (HEK 293T overexpression) (human) (UniProt O00206). Nature of the experiment: co-IP; HEK 293T co-transfected for 48 h; lysis in 150 mM NaCl, 50 mM Tris–HCl pH 8.0, 1 mM EDTA, 1% NP40; anti-FLAG M2 agarose at +4°C for 4 h (legend of Figure 4: 3 h); Western blot; in Figures 4 and 7D,E cells treated with 30 μM C3-Pen or P7-Pen for 1 h before lysis.
Experiment [5] deals with TLR4^FLAG in THP-1 TLR4^FLAG cells (UniProt O00206). Nature of the experiment: co-IP; anti-FLAG IPs from lysates of THP-1 TLR4^FLAG cells pretreated with 15 μM C3-Pen or P7-Pen and stimulated by LPS (100 ng/ml); Western blot.

The text below walks through data of paper PMC10547912.

Results are given in words; binding and its absence hold for the method and conditions named. In cells and extracts the contact can be indirect. Some entries that bind do so weakly or less than the wild type.

As for “IRAK1, endogenous in primary human monocytes (from UniProt P51617 1-712) (enzyme)”, the binding result in experiment [1] is “binds”. In the case of TRIF^HA (from UniProt Q8IUC6 1-712), the binding entry in experiment [2] is “binds”.

“MyD88, endogenous in primary human monocytes (from UniProt Q99836 1-296)”: the binding entry in experiment [3] is recorded as “binds”. Take TIRAP^HA (from UniProt P58753 1-221): the binding result in experiment [4] was “binds”. Take TRAM^YFP (from UniProt Q86XR7 1-235): the binding entry in experiment [4] is given as “binds”.

For “TIRAP, endogenous in THP-1 TLR4^FLAG cells (from UniProt P58753 1-221)”, the binding entry in experiment [5] was “binds”. For “FIP2^EGFP (Rab11 family interacting protein 2) (from UniProt Q7L804 1-512)”, the binding entry in experiment [2] is given as “binds”.
